Measurements reported in PubChem BioAssay AID743454 (Peter MacCallum Cancer Centre, 2014)

Purpose: 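Genes whose loss kills vorinostat-resistant colon cancer cells under vorinostat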 (primary screen)
Cells: human HCT116-VR colon cancer cells, selected for vorinostat resistance
Reagents: siRNA pool against human genes, 40 nM siRNA pool
Timing: vorinostat for 24 h, read-out about 72 h after transfection
Challenge: vorinostat at 2.5 µM final
Read-out: 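Cell viability by CellTiter-Fluor and caspase 3/7 activity by luminescence, each scaled to mock wells per plate, duplicates averaged, then robust z-scored over all plates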
Reading the numbers: viability robust z-score: higher = more viable cells than screen typical; caspase robust z-score: higher = more caspase 3/7 activity than screen typical
Call rule: 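Hits are knock-downs in viability class RV1/RV2 or caspase class CA1/CA2, excluding ones that killed cells in the no-drug cell-count arm; hits then retested with single siRNAs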
Shown is one part, drawn at random, of about 18,000 reagents tested. 450 of all reagents (2.5%) count as active. 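Single biological run; no consistent viability z cut-off exists, so the class columns, not z-scores, define the calls.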 Reagent sequences are not shown.

| gene | viability hit class | caspase hit class | viability robust z-score | caspase robust z-score | activity call |
| --- | --- | --- | --- | --- | --- |
| HOXC4 | no change | no change | 0.73 | -0.42 | inactive |
| SLC35G2 | no change | no change | 0.13 | -0.48 | inactive |
| LRRC37A | no change | no change | -0.53 | -0.92 | inactive |
| SLC9A5 | no change | no change | 0.62 | 0.66 | inactive |
| H1-5 | no change | CA1 (caspase activation) | -1.04 | 7.6 | active |
| PACSIN2 | no change | no change | -0.08 | 0.73 | inactive |
| TIMM8A | no change | no change | 0.54 | -0.06 | inactive |
| TMEM150A | no change | no change | 1.12 | -0.18 | inactive |
| MID2 | no change | no change | -0.55 | -0.9 | inactive |
| PPIP5K2 | no change | no change | -1.46 | 1.21 | inactive |
| OR4A5 | no change | no change | 0.06 | -0.9 | inactive |
| ACP1 | no change | no change | -1.8 | 0.46 | inactive |
| PRKCG | no change | no change | 0.72 | 0.02 | inactive |
| NBEA | no change | no change | -0.76 | -0.65 | inactive |
| NCKAP5L | no change | no change | -0.82 | 2.62 | inactive |
| MESD | no change | no change | -0.36 | 0.76 | inactive |
| CTAGE15 | no change | no change | -1.17 | -0.34 | inactive |
| RTTN | no change | no change | 0.14 | -1.01 | inactive |
| MAST3 | no change | no change | -0.24 | -0.22 | inactive |
| CES2 | no change | no change | 0.86 | -0.7 | inactive |
| ARSD | no change | no change | 1.12 | -0.96 | inactive |
| TRPM1 | no change | no change | -1.16 | 1.54 | inactive |
| LINC01565 | no change | no change | -0.24 | -0.18 | inactive |

3 entries already listed, arranged by “caspase robust z-score”, high to low.
| gene | viability hit class | caspase hit class | viability robust z-score | caspase robust z-score | activity call |
| --- | --- | --- | --- | --- | --- |
| TRPM1 | no change | no change | -1.16 | 1.54 | inactive |
| CES2 | no change | no change | 0.86 | -0.7 | inactive |
| ARSD | no change | no change | 1.12 | -0.96 | inactive |
